# Assay results published in the supplement of paper PMC10849652.
# Sequences of proteins named here, by UniProt entry; tags and fusion partners are left off. A change or cut given only in a name is not applied to a line headed by its entry.
# UniProt O95757: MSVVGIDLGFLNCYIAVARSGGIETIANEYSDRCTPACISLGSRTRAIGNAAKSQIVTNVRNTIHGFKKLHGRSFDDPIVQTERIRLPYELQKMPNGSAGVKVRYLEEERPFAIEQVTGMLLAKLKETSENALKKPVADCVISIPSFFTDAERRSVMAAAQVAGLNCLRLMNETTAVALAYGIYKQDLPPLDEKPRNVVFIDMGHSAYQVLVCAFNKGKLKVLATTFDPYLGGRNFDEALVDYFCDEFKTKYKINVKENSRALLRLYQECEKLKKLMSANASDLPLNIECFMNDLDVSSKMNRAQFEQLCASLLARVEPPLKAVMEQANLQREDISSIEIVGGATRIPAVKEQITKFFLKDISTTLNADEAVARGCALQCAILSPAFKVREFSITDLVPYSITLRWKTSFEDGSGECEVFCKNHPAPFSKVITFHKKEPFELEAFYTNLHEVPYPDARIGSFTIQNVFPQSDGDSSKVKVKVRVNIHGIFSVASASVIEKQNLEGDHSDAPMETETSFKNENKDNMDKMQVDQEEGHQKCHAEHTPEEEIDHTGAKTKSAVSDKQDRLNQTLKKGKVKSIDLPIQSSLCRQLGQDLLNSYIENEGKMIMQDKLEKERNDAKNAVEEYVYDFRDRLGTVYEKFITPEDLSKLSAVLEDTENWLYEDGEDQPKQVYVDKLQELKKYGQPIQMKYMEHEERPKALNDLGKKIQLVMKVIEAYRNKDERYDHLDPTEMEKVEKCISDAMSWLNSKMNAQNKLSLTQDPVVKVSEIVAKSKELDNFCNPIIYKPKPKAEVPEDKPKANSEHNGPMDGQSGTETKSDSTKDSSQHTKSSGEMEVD
# UniProt P05362: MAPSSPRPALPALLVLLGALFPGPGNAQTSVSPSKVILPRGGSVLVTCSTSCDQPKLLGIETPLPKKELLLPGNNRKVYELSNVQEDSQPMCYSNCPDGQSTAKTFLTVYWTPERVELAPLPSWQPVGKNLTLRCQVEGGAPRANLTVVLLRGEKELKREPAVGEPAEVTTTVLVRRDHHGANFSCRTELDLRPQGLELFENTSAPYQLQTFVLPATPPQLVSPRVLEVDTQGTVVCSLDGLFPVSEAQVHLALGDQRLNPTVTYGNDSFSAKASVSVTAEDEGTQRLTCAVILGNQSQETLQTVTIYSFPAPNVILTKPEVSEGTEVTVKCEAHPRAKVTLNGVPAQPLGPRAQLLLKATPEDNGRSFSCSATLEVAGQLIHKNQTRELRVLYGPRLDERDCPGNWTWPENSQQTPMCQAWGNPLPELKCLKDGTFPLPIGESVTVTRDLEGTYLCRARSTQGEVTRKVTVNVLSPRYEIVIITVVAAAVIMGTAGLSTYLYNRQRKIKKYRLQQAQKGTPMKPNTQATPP
# UniProt O15347: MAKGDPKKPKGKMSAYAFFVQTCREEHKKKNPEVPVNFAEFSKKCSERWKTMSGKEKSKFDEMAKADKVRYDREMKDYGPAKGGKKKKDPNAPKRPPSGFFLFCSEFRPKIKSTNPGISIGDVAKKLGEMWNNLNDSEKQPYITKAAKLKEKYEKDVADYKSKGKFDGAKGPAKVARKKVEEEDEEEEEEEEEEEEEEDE
# UniProt P05114: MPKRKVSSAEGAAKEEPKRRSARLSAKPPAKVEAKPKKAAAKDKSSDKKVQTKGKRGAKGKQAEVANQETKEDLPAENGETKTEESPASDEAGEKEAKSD
# UniProt Q6NVY1: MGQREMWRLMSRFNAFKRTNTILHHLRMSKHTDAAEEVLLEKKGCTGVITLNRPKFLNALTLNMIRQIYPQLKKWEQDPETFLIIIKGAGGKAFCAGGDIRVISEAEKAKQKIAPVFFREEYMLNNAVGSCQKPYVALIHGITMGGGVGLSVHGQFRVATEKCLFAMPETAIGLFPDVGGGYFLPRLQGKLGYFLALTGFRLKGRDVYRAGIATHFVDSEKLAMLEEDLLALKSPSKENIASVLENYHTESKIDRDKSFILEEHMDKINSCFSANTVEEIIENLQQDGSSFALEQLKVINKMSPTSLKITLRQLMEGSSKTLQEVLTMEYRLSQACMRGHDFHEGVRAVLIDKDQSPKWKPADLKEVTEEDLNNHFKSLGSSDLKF
# UniProt P50747: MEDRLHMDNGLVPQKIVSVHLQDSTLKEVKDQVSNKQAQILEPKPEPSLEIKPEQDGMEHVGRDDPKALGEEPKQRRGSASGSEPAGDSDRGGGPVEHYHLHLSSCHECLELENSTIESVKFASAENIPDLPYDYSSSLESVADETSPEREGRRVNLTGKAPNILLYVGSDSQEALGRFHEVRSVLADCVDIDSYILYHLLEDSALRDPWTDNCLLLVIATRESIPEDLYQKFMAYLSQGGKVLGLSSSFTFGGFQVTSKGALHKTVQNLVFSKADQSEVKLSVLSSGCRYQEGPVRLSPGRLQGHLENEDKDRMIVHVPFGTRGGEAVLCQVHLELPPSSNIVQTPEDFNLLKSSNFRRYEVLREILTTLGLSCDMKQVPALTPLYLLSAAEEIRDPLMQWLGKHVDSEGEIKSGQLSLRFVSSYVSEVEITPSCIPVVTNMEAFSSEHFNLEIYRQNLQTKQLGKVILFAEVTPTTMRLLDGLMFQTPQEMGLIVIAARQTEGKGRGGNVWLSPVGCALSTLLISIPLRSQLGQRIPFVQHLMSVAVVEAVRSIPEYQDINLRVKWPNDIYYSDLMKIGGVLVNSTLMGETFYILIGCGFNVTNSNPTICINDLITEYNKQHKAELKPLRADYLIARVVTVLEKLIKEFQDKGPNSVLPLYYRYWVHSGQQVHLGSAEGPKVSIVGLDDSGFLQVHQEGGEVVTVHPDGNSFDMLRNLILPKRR
# UniProt Q6DN03, whole entry, looked up: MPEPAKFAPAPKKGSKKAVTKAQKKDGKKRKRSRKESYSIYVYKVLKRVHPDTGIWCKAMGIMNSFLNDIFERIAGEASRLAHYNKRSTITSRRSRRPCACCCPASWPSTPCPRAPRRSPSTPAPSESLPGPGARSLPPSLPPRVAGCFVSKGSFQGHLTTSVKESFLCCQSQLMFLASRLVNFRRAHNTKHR
# UniProt P07910: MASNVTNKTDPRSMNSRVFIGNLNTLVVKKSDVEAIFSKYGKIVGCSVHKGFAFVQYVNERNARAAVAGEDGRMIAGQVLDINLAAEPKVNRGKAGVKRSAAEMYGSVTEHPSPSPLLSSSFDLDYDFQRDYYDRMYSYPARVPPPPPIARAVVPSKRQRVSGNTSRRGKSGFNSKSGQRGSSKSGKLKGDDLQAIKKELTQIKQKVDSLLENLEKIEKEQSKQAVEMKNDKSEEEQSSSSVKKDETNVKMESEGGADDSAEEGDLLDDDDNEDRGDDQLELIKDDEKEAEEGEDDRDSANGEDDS
# UniProt P38646: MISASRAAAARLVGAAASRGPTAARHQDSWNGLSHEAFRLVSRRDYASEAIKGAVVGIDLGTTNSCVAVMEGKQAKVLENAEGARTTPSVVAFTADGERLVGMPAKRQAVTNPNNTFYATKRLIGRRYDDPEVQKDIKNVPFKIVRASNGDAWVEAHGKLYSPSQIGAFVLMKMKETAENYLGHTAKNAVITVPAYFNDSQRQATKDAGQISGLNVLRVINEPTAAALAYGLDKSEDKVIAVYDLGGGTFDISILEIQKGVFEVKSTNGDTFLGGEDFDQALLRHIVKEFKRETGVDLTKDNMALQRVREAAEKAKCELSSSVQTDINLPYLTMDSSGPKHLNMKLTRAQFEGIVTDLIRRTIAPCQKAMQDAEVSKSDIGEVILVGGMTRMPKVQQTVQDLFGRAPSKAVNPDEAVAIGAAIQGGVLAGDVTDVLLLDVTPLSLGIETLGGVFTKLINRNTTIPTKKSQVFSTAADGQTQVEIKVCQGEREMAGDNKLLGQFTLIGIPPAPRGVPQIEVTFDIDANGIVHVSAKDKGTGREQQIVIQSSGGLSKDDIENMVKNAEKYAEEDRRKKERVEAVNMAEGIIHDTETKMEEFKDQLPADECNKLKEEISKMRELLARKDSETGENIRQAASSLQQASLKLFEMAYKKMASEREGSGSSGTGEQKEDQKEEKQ
# UniProt O60921: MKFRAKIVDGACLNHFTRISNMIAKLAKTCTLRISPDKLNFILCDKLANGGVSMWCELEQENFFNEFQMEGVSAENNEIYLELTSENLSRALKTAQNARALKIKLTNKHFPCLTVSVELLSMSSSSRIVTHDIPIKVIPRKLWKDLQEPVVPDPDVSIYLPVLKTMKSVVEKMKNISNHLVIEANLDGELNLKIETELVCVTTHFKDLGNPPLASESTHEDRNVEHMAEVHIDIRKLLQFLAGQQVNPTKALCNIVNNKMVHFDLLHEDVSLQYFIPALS
# UniProt P23327: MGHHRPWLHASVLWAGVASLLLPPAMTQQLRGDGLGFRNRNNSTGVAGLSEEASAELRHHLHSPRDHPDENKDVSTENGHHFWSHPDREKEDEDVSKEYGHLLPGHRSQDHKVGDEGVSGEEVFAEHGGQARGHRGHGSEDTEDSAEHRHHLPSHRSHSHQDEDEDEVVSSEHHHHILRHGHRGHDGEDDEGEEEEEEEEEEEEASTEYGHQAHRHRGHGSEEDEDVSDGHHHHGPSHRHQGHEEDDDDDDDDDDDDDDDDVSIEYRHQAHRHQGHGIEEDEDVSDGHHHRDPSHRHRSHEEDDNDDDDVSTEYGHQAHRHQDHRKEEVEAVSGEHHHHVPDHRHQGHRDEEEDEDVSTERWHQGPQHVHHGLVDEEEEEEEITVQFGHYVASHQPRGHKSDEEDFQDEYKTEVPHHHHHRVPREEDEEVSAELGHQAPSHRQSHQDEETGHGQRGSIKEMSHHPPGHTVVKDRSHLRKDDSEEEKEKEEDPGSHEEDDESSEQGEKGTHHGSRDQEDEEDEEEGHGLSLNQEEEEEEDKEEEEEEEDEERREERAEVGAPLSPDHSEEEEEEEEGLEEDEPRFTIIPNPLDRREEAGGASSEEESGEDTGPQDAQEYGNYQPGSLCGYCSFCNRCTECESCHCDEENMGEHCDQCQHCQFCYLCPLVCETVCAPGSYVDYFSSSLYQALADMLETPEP
# UniProt P08238, whole entry, looked up: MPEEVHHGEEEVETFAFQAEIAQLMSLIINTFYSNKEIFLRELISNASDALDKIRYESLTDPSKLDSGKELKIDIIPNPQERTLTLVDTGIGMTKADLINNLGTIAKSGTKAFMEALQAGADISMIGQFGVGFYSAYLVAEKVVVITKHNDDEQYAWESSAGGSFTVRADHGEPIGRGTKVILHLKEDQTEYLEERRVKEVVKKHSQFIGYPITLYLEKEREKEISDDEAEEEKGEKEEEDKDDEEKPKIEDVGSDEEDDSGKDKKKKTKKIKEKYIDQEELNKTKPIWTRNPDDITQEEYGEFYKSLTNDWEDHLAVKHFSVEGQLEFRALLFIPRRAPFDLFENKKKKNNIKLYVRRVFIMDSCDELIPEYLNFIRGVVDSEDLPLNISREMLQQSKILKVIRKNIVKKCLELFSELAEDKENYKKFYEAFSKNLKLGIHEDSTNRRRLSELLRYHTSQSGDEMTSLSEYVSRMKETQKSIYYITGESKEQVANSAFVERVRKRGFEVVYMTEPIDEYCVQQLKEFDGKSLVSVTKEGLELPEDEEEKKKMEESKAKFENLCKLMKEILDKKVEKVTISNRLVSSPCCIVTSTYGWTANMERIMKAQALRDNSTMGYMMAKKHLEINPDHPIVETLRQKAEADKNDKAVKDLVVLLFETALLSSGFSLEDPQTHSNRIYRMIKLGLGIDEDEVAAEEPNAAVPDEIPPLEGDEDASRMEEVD
# UniProt P52789: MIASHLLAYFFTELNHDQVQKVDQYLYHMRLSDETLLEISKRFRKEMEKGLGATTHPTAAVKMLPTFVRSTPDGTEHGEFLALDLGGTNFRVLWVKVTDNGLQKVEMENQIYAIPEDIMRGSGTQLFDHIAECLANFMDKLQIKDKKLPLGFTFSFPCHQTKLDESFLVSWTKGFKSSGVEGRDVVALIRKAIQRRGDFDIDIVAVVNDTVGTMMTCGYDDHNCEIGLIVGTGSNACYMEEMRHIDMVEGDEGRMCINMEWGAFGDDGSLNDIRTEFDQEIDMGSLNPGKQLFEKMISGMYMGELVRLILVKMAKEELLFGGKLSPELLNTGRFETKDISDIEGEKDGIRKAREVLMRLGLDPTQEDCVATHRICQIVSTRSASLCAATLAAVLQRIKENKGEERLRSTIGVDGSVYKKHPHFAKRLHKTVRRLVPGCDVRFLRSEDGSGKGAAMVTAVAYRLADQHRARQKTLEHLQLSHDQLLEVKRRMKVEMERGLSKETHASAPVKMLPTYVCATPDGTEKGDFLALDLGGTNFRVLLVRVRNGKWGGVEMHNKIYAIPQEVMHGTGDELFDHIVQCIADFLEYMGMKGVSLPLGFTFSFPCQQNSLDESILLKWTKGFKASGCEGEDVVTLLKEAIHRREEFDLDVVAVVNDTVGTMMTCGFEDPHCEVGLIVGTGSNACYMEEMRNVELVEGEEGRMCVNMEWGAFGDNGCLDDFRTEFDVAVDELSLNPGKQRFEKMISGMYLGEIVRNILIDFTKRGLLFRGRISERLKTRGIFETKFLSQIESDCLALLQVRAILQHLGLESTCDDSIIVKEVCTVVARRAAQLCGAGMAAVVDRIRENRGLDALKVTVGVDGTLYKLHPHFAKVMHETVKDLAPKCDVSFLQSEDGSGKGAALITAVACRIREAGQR
# This is one part of the list.
# Experiments:
# Test in all cases: log2 fold change, soluble protein after heating vs DMSO (PISA); higher = thermal stabilisation; K562 cells, 10 uM, 30 min; active = over 0.2 and 3.5 SD of the protein, either way, in both replicates (recomputed)
# [1] = compound: CC1=C(C=C(C=C1)NC(=O)C2=CC(=CC=C2)C(C)(C)C#N)NC3=CC4=C(C=C3)N=CN(C4=O)C
# In short: (§1)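 Thermal stability values are relative to control samples and come from duplicates. They are expressed as log2 fold changes. For measurement, K562 cells (2×10^6 cells/mL) received 10 μM compound for 30 min, and aliquots were heated for 3 min over 48°C-58°C, pooled, and extracted at 4°C in PBS with 0.5% NP-40. Soluble protein, the supernatant after 21,000xg for 90 min, was quantified by TMTpro 16plex LC-MS/MS with equalised channel sums.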
# [2] = compound: CC1=C(C=C(C=C1)NC(=O)C2=CC(=CC=C2)N(C)C)NC(=O)C3=CC=C(C=C3)O
# In short: as §1
# [3] = compound: CC1=CC=C(C=C1)SC2=C3C=C(SC3=CN=C2)C(=O)N
# In short: as §1
# [4] = compound: CC1=NC(=CC=C1)C2=C(N=C(N2)C(C)(C)C)C3=CC4=NC=CN=C4C=C3
# In short: as §1
# [5] = compound: CCCCN(Cc1ccc(C(=O)NO)cc1)C(=O)Nc1ccccc1 [Nexturastat A]
# In short: as §1
# [6] = compound: CCCS(=O)(=O)Nc1ccc(F)c(C(=O)c2c[nH]c3ncc(-c4ccc(Cl)cc4)cc23)c1F [vemurafenib]
# In short: as §1
# [7] = compound: CCCS(=O)(=O)Nc1ccc(F)c(C(=O)c2c[nH]c3ncc(Cl)cc23)c1F
# In short: as §1
# [8] = compound: CCCc1cc(C)[nH]c(=O)c1CNC(=O)c1cc(-c2ccnc(N3CCN(C)CC3)c2)cc2c1cnn2C(C)C
# In short: as §1
# [9] = compound: CCN(CC)Cc1ccc2cc(COC(=O)Nc3ccc(C(=O)NO)cc3)ccc2c1 [givinostat]
# In short: as §1
# [10] = compound: CCN(CCCOc1ccc2c(Nc3cc(CC(=O)Nc4cccc(F)c4)[nH]n3)ncnc2c1)CCOP(=O)(O)O [barasertib]
# In short: as §1
Target,log2 fold change [1],log2 fold change [2],log2 fold change [3],log2 fold change [4],log2 fold change [5],log2 fold change [6],log2 fold change [7],log2 fold change [8],log2 fold change [9],log2 fold change [10]
HSPA13 (UniProt P48723),inactive: 0.021,inactive: 0.002,inactive: 0.021,inactive: 0.03,inactive: 0.003,inactive: 0.028,inactive: 0.001,inactive: 0.005,inactive: -0.008,inactive: 0.006
HNRNPH3 (UniProt P31942),inactive: 0.035,inactive: -0.001,inactive: -0.12,inactive: -0.03,inactive: 0.349,inactive: 0.007,inactive: 0.284,inactive: 0.108,inactive: 0.226,inactive: -0.061
HSPA4L (UniProt O95757),inactive: 0,inactive: -0.013,inactive: -0.017,inactive: 0.006,inactive: -0.066,inactive: 0.019,inactive: 0.007,inactive: -0.001,inactive: -0.022,inactive: 0.022
ICAM1 (UniProt P05362),inactive: -0.055,inactive: 0.016,inactive: 0.033,inactive: -0.016,inactive: 0.02,inactive: 0.018,inactive: -0.034,inactive: 0.001,inactive: -0.014,inactive: -0.021
HMGB3 (UniProt O15347),inactive: -0.012,inactive: 0,inactive: 0.006,inactive: 0.011,inactive: -0.014,inactive: -0.083,inactive: 0.011,inactive: 0.202,inactive: -0.016,inactive: -0.008
HINT1 (UniProt P49773),inactive: 0.009,inactive: -0.047,inactive: 0.062,inactive: 0.001,inactive: -0.091,inactive: -0.021,inactive: -0.025,inactive: -0.032,inactive: -0.053,inactive: 0.053
HMGN1 (UniProt P05114),inactive: 0.056,inactive: 0.027,inactive: -0.048,inactive: 0.078,inactive: -0.017,inactive: 0.004,inactive: -0.064,inactive: -0.033,inactive: -0.119,inactive: -0.06
HOOK3 (UniProt Q86VS8),inactive: -0.024,inactive: -0.023,inactive: -0.014,inactive: -0.039,inactive: 0.034,inactive: -0.014,inactive: -0.001,inactive: -0.026,inactive: 0.091,inactive: 0.008
HSPA1L (UniProt P34931),inactive: -0.043,inactive: -0.001,inactive: -0.019,inactive: -0.009,inactive: 0.046,inactive: -0.018,inactive: -0.079,inactive: 0.053,inactive: -0.062,inactive: -0.013
HIBCH (UniProt Q6NVY1),inactive: 0.041,inactive: -0.036,inactive: -0.035,inactive: 0.042,inactive: -0.04,inactive: 0.009,inactive: 0.003,inactive: 0.024,inactive: -0.01,inactive: 0.009
HNRNPM (UniProt P52272),inactive: 0.007,inactive: -0.053,inactive: -0.047,inactive: -0.045,inactive: 0.253,inactive: 0.039,inactive: 0.077,inactive: 0.078,inactive: 0.225,inactive: 0.044
HNRNPA3 (UniProt P51991),inactive: 0.025,inactive: 0.021,inactive: -0.117,inactive: -0.058,inactive: 0.153,inactive: 0,inactive: -0.031,inactive: 0.127,inactive: -0.029,inactive: -0.198
HSPA4 (UniProt P34932),inactive: 0.02,inactive: -0.005,inactive: -0.017,inactive: 0.024,inactive: -0.045,inactive: 0.007,inactive: 0.009,inactive: -0.006,inactive: -0.047,inactive: 0.019
HGS (UniProt O14964),inactive: 0.014,inactive: -0.009,inactive: 0.008,inactive: 0.022,inactive: -0.045,inactive: 0.01,inactive: 0.033,inactive: -0.032,inactive: -0.011,inactive: 0.018
HTRA2 (UniProt O43464),inactive: 0.011,inactive: -0.02,inactive: 0.032,inactive: 0.044,inactive: -0.046,inactive: -0.006,inactive: -0.022,inactive: -0.048,inactive: -0.027,inactive: 0.009
HMGN3 (UniProt Q15651),inactive: 0.011,inactive: -0.048,inactive: -0.016,inactive: 0.11,inactive: 0.162,inactive: 0.031,inactive: 0.085,inactive: -0.029,inactive: -0.014,inactive: -0.209
HLCS (UniProt P50747),inactive: 0.006,inactive: 0.014,inactive: 0.025,inactive: 0.009,inactive: -0.051,inactive: -0.006,inactive: 0.067,inactive: 0.035,inactive: -0.019,inactive: 0.058
HSD17B10 (UniProt Q99714),inactive: 0.098,inactive: -0.028,inactive: 0.055,inactive: 0.099,inactive: -0.138,inactive: 0.051,inactive: 0.074,inactive: -0.018,inactive: -0.017,inactive: 0.003
HIST2H2BC (UniProt Q6DN03),inactive: -0.132,inactive: -0.047,inactive: -0.298,inactive: -0.035,inactive: 0.727,inactive: -0.252,inactive: 0.2,inactive: 0.324,inactive: 0.351,inactive: -0.124
HNRNPC isoform 2 (UniProt P07910),inactive: 0.276,inactive: -0.074,inactive: -0.349,inactive: -0.045,inactive: 0.449,inactive: -0.055,inactive: -0.191,inactive: 0.028,inactive: 0.241,inactive: -0.095
HSPA9 (UniProt P38646),inactive: -0.05,inactive: 0.017,inactive: -0.001,inactive: 0.003,inactive: -0.072,inactive: -0.046,inactive: -0.023,inactive: 0.048,inactive: 0,inactive: 0.004
HSD17B11 (UniProt Q8NBQ5),inactive: 0.021,inactive: 0.033,inactive: 0.005,inactive: 0.035,inactive: -0.058,inactive: 0.028,inactive: -0.006,inactive: 0.008,inactive: -0.023,inactive: 0.006
HNRNPD (UniProt Q14103),inactive: 0.056,inactive: 0.04,inactive: -0.092,inactive: -0.054,inactive: 0.099,inactive: -0.053,inactive: -0.028,inactive: 0.035,inactive: -0.09,inactive: -0.045
HUS1 (UniProt O60921),inactive: 0.02,inactive: 0,inactive: 0.014,inactive: 0.042,inactive: -0.067,inactive: -0.036,inactive: 0.007,inactive: -0.046,inactive: -0.061,inactive: 0.022
HRC (UniProt P23327),inactive: -0.199,inactive: 0.031,inactive: 0.008,inactive: 0.005,inactive: 0.041,inactive: -0.044,inactive: -0.097,inactive: -0.025,inactive: -0.059,inactive: 0.021
HMMR isoform 3 (UniProt O75330),inactive: -0.006,inactive: -0.042,inactive: -0.013,inactive: -0.026,inactive: 0.103,inactive: 0.045,inactive: 0.013,inactive: 0.037,inactive: 0.042,inactive: 0.039
HMGB2 (UniProt P26583),inactive: 0.058,inactive: 0.009,inactive: -0.017,inactive: 0.088,inactive: -0.001,inactive: 0.004,inactive: 0.006,inactive: 0.13,inactive: -0.026,inactive: -0.001
HSP90AB1 (UniProt P08238),inactive: 0.031,inactive: -0.013,inactive: 0.013,inactive: 0.017,inactive: 0.007,inactive: 0.022,inactive: 0.049,inactive: 0.056,inactive: -0.04,inactive: 0.006
HK2 (UniProt P52789),active: -0.257,inactive: -0.028,inactive: 0,inactive: 0.019,inactive: 0.017,inactive: 0.003,inactive: 0.027,inactive: -0.041,inactive: -0.016,inactive: 0.051
HSP90AA4P (UniProt Q58FG1),inactive: -0.126,inactive: 0.002,inactive: -0.21,inactive: -0.039,inactive: 0.014,inactive: -0.207,inactive: -0.121,inactive: -0.258,inactive: 0.038,inactive: 0.106

# Fetched one by one from the entries so far:
Target,log2 fold change [1],log2 fold change [2],log2 fold change [3],log2 fold change [4],log2 fold change [5],log2 fold change [6],log2 fold change [7],log2 fold change [8],log2 fold change [9],log2 fold change [10]
HMMR isoform 3 (UniProt O75330),inactive: -0.006,inactive: -0.042,inactive: -0.013,inactive: -0.026,inactive: 0.103,inactive: 0.045,inactive: 0.013,inactive: 0.037,inactive: 0.042,inactive: 0.039
HMGN1 (UniProt P05114),inactive: 0.056,inactive: 0.027,inactive: -0.048,inactive: 0.078,inactive: -0.017,inactive: 0.004,inactive: -0.064,inactive: -0.033,inactive: -0.119,inactive: -0.06
